Experimental data as given in paper doi:10.1101/2022.02.18.480778.
These are yes or no findings as the source states them, for the method shown. Binding seen in cells or lysates may run through a third protein. Some results given as binding are weak or reduced against the parent protein; the word gives no strength. Tags and fused reporters may be left off the sequences shown.

Target: FLAG-tagged SHFL (FLAG-SHFL) (human) (UniProt Q9NUL5)
Assay: co-IP

B1: 6X HIS-tagged ORF57 (ORF57-6XHIS) (protein, UniProt Q2HR75 1-455)
chain: MVQAMIDMDIMKGILEDSVSSSEFDESRDDETDAPTLEDEQLSEPAEPPADERIRGTQSAQGIPPPLGRIPKKSQGRSQLRSEIQFCSPLSRPRSPSPVNRYGKKIKFGTAGQNTRPPPEKRPRRRPRDRLQYGRTTRGGQCRAAPKRATRRPQVNCQRQDDDVRQGVSDAVKKLRLPASMIIDGESPRFDDSIIPRHHGACFNVFIPAPPSHVPEVFTDRDITALIRAGGKDDELINKKISAKKIDHLHRQMLSFVTSRHNQAYWVSCRRETAAAGGLQTLGAFVEEQMTWAQTVVRHGGWFDEKDIDIILDTAIFVCNAFVTRFRLLHLSCVFDKQSELALIKQVAYLVAMGNRLVEACNLLGEVKLNFRGGLLLAFVLTIPGMQSRRSISARGQELFRTLLEYYRPGDVMGLLNVIVMEHHSLCRNSECAAATRAAMGSAKFNKGLFFYPLS
binding: binds
